In patent US12508249B2, “Methods related to administering immunosuppressants and non-allergenic antigens to reduce or prevent anaphylaxis” (Cartesian Therapeutics, Inc., priority 2013, dated 2025):
At least one structure is not confirmed: it was looked up by name or label, or the drawing left a doubt.

Tested on: Ovalbumin protein (OVA+Alum)
Assay: Inhibition of anaphylaxis in an OVA-Alum model (i.v. OVA challenge)
Format: in vivo, Balb/c mice
Details: 100 μg rapamycin given i.v. with OVA+Alum i.p. immunization d0 and d5; challenge fifteen days later; FIG. 3

## CO[C@H]1C[C@@H]2CC[C@@H](C)[C@@](O)(O2)C(=O)C(=O)N2CCCC[C@H]2C(=O)O[C@H]([C@H](C)C[C@@H]2CC[C@@H](O)[C@H](OC)C2)CC(=O)[C@H](C)/C=C(\C)[C@@H](O)[C@@H](OC)C(=O)[C@H](C)C[C@H](C)/C=C/C=C/C=C/1C [free rapamycin, Rapamycin]
  anaphylactic reaction to OVA i.v. bolus (25 μg): did not reduce the anaphylactic reaction
